We go through one substance from patent publication US20250163160A1.

By UniProt entry, the sequences of proteins in these tests, tags left out. Where a name states a change or a piece, a line headed by the entry shows the natural chain unless it says otherwise.
UniProt Q86Z14: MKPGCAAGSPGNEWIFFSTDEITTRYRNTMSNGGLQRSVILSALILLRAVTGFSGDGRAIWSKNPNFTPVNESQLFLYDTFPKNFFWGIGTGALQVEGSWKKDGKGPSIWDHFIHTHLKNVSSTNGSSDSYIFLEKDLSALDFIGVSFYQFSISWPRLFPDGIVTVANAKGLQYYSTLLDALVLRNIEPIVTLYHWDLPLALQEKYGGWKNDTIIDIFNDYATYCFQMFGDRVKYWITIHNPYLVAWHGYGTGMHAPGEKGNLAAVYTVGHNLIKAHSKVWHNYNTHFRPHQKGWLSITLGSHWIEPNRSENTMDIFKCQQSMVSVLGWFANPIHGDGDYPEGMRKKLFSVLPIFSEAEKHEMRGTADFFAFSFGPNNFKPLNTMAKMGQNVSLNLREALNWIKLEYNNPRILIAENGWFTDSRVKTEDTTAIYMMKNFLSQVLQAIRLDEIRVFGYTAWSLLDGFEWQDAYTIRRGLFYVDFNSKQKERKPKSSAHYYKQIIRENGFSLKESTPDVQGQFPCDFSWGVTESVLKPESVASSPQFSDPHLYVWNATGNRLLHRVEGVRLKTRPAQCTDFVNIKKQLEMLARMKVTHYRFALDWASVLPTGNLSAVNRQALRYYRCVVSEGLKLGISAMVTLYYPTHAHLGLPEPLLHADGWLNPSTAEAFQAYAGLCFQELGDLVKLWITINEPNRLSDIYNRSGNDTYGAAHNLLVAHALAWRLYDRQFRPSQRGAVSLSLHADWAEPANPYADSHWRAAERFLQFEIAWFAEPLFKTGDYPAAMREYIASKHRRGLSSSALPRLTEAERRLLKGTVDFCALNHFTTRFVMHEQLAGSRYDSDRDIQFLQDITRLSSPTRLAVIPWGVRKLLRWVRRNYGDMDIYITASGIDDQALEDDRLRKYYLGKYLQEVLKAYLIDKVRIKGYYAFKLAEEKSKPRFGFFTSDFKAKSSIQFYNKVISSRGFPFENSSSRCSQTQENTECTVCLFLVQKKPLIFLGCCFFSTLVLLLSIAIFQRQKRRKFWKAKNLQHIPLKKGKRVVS
UniProt Q9NSA1: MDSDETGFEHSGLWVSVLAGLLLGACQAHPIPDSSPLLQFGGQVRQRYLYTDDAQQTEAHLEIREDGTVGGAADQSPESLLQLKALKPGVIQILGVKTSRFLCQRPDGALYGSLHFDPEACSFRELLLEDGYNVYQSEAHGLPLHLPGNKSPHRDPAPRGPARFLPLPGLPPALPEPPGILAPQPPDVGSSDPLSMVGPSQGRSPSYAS

Test [1] addresses soluble human β-Klotho (human) (UniProt Q86Z14). Kind of test: Biacore sandwich format (Example 8): 17D8 immobilised, soluble human β-Klotho (or FGFR1c/β-Klotho ECD-Fc complex) captured on it, FGF21 injected about 775-1375 s; concentration not given. A general note: Surface plasmon resonance follows binding to a sensor surface in real time, without labels.
Test [2] has the same target. Briefly: Biacore: biotinylated FGF21 immobilised on the chip, 10 nM soluble β-Klotho injected alone or mixed with 100 nM antibody.

These are yes or no findings as the source states them, for the method shown. Some entries that bind do so weakly or less than the wild type.

“Fibroblast Growth Factor 21 (FGF21), human (from UniProt Q9NSA1 29-209) (ligand)”: the binding entry in test [1] and in test [2] was “binds” each time.
